# The other results are listed elsewhere or left out. At the low end of the ranking the order means little.
# Tested on: c-MYC + MAX + histone octamer
# Assay: Pioneer-seq (competitive nucleosome EMSA with sequencing)
# Details: 10 mM Tris-Cl pH 7.5, 50 mM NaCl, 1 mM DTT, 0.25 mg/ml BSA, 2 mM MgCl2, 0.025% Nonidet P-40, 5% glycerol; 28 nM nucleosome library; 10 min on ice then 30 min …; high values mean tight binding; double strand, one strand shown
row,Sequence,binding signal (log2 relative supershift)
1,GATGGACCCTATACGCGGCGGGAGACCAGGCGTCCTGGTCCCTTCCTTCTGTCTCCGGCTCCCGCCCCCCAAGCAGAAACAGGTCCCTGCACGCCTCCAGCCCAGCCCGCAGCGCGGCGCAGCTCGGCGCAGCTCGGCGCTGGGAGCTCGCTCCGGACTTCTCGGGATTAACCTGCTATTATGTCCCGGAGCCCTTCCCTGCAATGGGCTTGCCAGTCGGATAGTGTTCC,-0.099
2,GATGGACCCTATACGCGGCAAAAAAAAAGCGAAGGTGAGATGAAGCTTCAGAAAATAGAGGGCCGGGGAGGACACAGGCAGACAGAAGGAATGAGCGACTCAGTCTCAGGTTTCTGGGTCAGATCCAGGTCACATGTTTTGTCTCCTATAAAACTTACACCATACTTGTCGTTACTTGTTCAGTGCCTGCCTCTTCAACTAGGCTGTGAATGCCAGTCGGATAGTGTTCC,-0.0792
3,GATGGACCCTATACGCGGCAAAATCACAACCTACAAGTACAGAAGAGATTGCTACAGAGAAGGGTGGTGCTCCACACTCAGAGGCATGAATAAAAGGCCTAAGAGAGCACACAAGGCAATGATTAAGATGCAAATACGCCTTTCAGGTTGGCTCCTTCCTATCTTTCCATCTTGTGCTAAGCAGTGAGAAGAAAAATATTTATCCACAGCTGCCAGTCGGATAGTGTTCC,-0.0592
4,GATGGACCCTATACGCGGCAAAATATATATATATATAGTGGGACTGGGGAATCACAGAACCTTGCCTCAGCCCTGCCACCTTGCTGCCCATGAGGCTTTCAGGGAGGCTGTGGGAAGGGAGGGGGACAATGTCAAAGGCACATGGAAGCTCCCCTTTTATTATTAGCTGGGTGTGTGCCCAGCTCCTCCCAAACAGAACAGGGCTGGGACTGCCAGTCGGATAGTGTTCC,-0.126
5,GATGGACCCTATACGCGGCAGCTGCATTTGGGACCTTATGGGAAAGTCTGTAAAATTTGCTGTCTTTATTTGCCCTTTAGAGAAAACAGTTTGCTGACCCCTGCACTACAGAGGTTAAGGAGTCCTCCCTCCCTCCCAAGGACCTGTATAGGCACGAAGGCCAGAGGAGCTGTTCTTATCTATGAAAGCTTCCTGGAGTGGATTTCGTGGTGCCAGTCGGATAGTGTTCC,-0.07
6,GATGGACCCTATACGCGGCGCAGTAAAATCAACAGCTATGGTTGTGATGGAAGAAGAAAGACATAACCATTACCCAGAAGAGGGTGGATAGTAGTGTTTAGTTTTATTATTAGCAGCACTATTTACATAACAGCACATGTGCATGCCTGCCTGTCCATATAGAGCTATGGGCTTGGGGTGGGGCAAGAGAGAGTCATTGCTTGTAGAATTTGCCAGTCGGATAGTGTTCC,-0.132
7,GATGGACCCTATACGCGGCGTATCCTAGAACTGCACTTTCTATCAACTTATGTTTCCCTGTGAAGAAAACCTTGTCTCAGCGAGGTGTGGCTGTTCTCAGAGTACTGTGTGTATATGCACGTGGGTGGGTGTGGGTGTGCATATATGTGTAATGGGGACGAACGAGTATTCCTGTACCTTCTTGTTGAGTAGAAGAAAAACATCAAGTTCTGCCAGTCGGATAGTGTTCC,-0.284
8,GATGGACCCTATACGCGGCGACATTGAATCCCCTCACTATAATCTGAATGTGATTTATTATCCCCTTAAAGAGGGGCATCCATACAGGCATGGTCTAATCCCTTGCAATTCAAAGTGTAATCCAAAAGCCAGTAGCATTTGCATCACTTGGGAGCCTGTTACAAATGCACAACCTCAGACCCACCCCACACCTACTGAATCAAGATCCACTGCCAGTCGGATAGTGTTCC,-0.062
9,GATGGACCCTATACGCGGCTTTGCCGAGAGGTTTGTTTCTGTTATAACTTTTCAAGACTGACTCCATTGTTTATTTTTGGAGCCAACTAGTCTTAGACCTCAGACCTCAGCACACTCAACAGGCCTCAACATGTTTTGAGGGCCTGCCGGAGAAGGCCCAGGCCTCACGGGTGCAGGTCCTACAGAAACCCAGTATCTGAGAGCAGCCTCTGCCAGTCGGATAGTGTTCC,-0.307
10,GATGGACCCTATACGCGGCCTAATGTGCCTTTGTTAGCAATATCACTTATTTTCTTCAACTGATGTTGAACACATTGTGCTCTCCCAAGCAGGTCTTAAGTCATGCCACGTCAGGGCTGGACCGCTCTTCTTATTCTGCACATGGGCCCTCACTTAGGCAGGGGTGCGGTCAACATTGAAAGAGGTTCCATTCTAGGAATGTAGTGGTTATGCCAGTCGGATAGTGTTCC,-0.317
11,GATGGACCCTATACGCGGCTCTATAGAAGGGTGCGCCCTTACAGATGGAACAATGGTGAGCACACACTTGGACAAGGGAGGGGAAGGAGTTCTTATCCCTGATGCACATGGACCCTGCTGCTGTGCCATTCCCCCATTGGCTAGGGTTAGACTGCACAGGCTAAAGTAATTCCAATTGGCTACTTTAAAGAGAATGACAGGGTGAGTGCTTGCCAGTCGGATAGTGTTCC,-0.36

# A second format for part of the listing above.
row	Sequence	binding signal (log2 relative supershift)
1	GATGGACCCTATACGCGGCGGGAGACCAGGCGTCCTGGTCCCTTCCTTCTGTCTCCGGCTCCCGCCCCCCAAGCAGAAACAGGTCCCTGCACGCCTCCAGCCCAGCCCGCAGCGCGGCGCAGCTCGGCGCAGCTCGGCGCTGGGAGCTCGCTCCGGACTTCTCGGGATTAACCTGCTATTATGTCCCGGAGCCCTTCCCTGCAATGGGCTTGCCAGTCGGATAGTGTTCC	-0.099
10	GATGGACCCTATACGCGGCCTAATGTGCCTTTGTTAGCAATATCACTTATTTTCTTCAACTGATGTTGAACACATTGTGCTCTCCCAAGCAGGTCTTAAGTCATGCCACGTCAGGGCTGGACCGCTCTTCTTATTCTGCACATGGGCCCTCACTTAGGCAGGGGTGCGGTCAACATTGAAAGAGGTTCCATTCTAGGAATGTAGTGGTTATGCCAGTCGGATAGTGTTCC	-0.317

# Reference: publication PMC12370185
